Source: article PMC10728194
Results are given in words; binding and its absence hold for the method and conditions named. Binding seen in cells or lysates may run through a third protein. Some binding calls cover weakened binding; strength is not graded here. Sequences can lack the tags named with a protein. Each block holds one binder with its values, some of them ahead of it.

The chains behind the UniProt entries cited, without tags or fusion partners.
UniProt Q8C078: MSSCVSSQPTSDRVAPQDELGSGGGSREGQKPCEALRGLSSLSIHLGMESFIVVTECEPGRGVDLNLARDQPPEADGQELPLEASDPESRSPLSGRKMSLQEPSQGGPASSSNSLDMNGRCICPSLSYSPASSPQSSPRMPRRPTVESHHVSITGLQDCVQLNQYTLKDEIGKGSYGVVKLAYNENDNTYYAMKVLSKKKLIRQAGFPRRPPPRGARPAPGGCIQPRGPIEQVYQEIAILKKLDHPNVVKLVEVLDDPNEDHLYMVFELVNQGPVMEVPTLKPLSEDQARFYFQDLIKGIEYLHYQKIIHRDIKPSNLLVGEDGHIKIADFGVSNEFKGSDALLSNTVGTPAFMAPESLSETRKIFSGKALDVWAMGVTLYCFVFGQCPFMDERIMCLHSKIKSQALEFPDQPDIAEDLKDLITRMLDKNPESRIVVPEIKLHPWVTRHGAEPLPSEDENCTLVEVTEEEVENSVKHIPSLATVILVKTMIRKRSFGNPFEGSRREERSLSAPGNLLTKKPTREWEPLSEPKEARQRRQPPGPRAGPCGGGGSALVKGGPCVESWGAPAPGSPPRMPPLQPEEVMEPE

Legend:
[1] = target: T1, Flag-tagged Cdo1 (cysteine dioxygenase type 1), wild type (mouse) (UniProt P60334); assay: co-IP; primary hepatocytes infected with AD-Flag-Cdo1; immunoprecipitation from cell lysates with anti-Flag beads, then western blotting
T1 sequence: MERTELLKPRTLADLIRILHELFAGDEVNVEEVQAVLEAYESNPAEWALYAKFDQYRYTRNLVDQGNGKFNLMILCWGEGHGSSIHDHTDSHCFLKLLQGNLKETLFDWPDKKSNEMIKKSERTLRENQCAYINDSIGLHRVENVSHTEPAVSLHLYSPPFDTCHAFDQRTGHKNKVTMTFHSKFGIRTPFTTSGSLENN

[2] = target: Camkk2 (mouse (endogenous in primary hepatocytes)) (UniProt Q8C078); assay: co-IP; lysates of primary hepatocytes immunoprecipitated with antibody against Camkk2, then western blotting; also after infection with AD-Cdo1^WT or AD-Cdo1^Y157F (more AMPKα with Camkk2) and after ablation of Cdo1 by AD-Cre (less AMPKα with Camkk2)

binding [1]: no binding
B1: LKB1 (enzyme, UniProt Q9WTK7 1-436)
chain: MDVADPEPLGLFSEGELMSVGMDTFIHRIDSTEVIYQPRRKRAKLIGKYLMGDLLGEGSYGKVKEVLDSETLCRRAVKILKKKKLRRIPNGEANVKKEIQLLRRLRHRNVIQLVDVLYNEEKQKMYMVMEYCVCGMQEMLDSVPEKRFPVCQAHGYFRQLIDGLEYLHSQGIVHKDIKPGNLLLTTNGTLKISDLGVAEALHPFAVDDTCRTSQGSPAFQPPEIANGLDTFSGFKVDIWSAGVTLYNITTGLYPFEGDNIYKLFENIGRGDFTIPCDCGPPLSDLLRGMLEYEPAKRFSIRQIRQHSWFRKKHPLAEALVPIPPSPDTKDRWRSMTVVPYLEDLHGRAEEEEEEDLFDIEDGIIYTQDFTVPGQVLEEEVGQNGQSHSLPKAVCVNGTEPQLSSKVKPEGRPGTANPARKVCSSNKIRRLSACKQQ

binding [2]: binds
B2: Cdo1 (cysteine dioxygenase type 1), endogenous (enzyme, UniProt P60334 1-200)
chain: T1 sequence

binding [2]: binds
B3: Flag-tagged Cdo1 (cysteine dioxygenase type 1), wild type (enzyme, UniProt P60334 1-200)
chain: T1 sequence
